Test results as given in patent US20190375855A1 (Memorial Sloan Kettering, published 2019).

Tests used:
[1] = target: Trp1 on B78H1-Trp1 cells (B78H1 engineered to express TRP1 on the surface); experiment: flow cytometry on B78H1-Trp1 cells (surface Trp1), detection with anti-mouse IgG PE
[2] = target: Trp1 on B78H1-Trp1 cells (B78H1 engineered to express TRP1 on the surface); experiment: flow cytometry on B78H1-Trp1 cells, anti-mouse IgG PE detection

Binder	binding [1]	binding [2]
murine monoclonal antibody TA99 (antibody, V domains shown) VH: EVQLQQSGAELVRPGALVKLSCKTSGFNIKDYFLHWVRQRPDQGLEWIGWINPDNGNTVYDPKFQGTASLTADTSSNTVYLQLSGLTSEDTAVYFCTRRDYTYEKAALDYWGQGASVIVSS VL: AFQMSQSPASLSASVGETVTITCRASGNIYNYLAWYQQKQGKSPHLLVYDAKTLADGVPSRFSGSGSGTQYSLKISSLQTEDSGNYYCQHFWSLPFTFGSGTKLEIKA	binds	binds
soluble protein comprising the TA99-derived scFv and a Fc domain fused to the scFv (Fc fusion, not shown: a dimerising Fc or GST, also called scFv-Fc fusion protein; TA99 single chain variable region fused to an Fc domain) scFv: EVQLQQSGAELVRPGALVKLSCKTSGFNIKDYFLHWVRQRPDQGLEWIGWINPDNGNTVYDPKFQGTASLTADTSSNTVYLQLSGLTSEDTAVYFCTRRDYTYEKAALDYWGQGASVIVSSGGGGSGGGGSGGGGSAFQMSQSPASLSASVGETVTITCRASGNIYNYLAWYQQKQGKSPHLLVYDAKTLADGVPSRFSGSGSGTQYSLKISSLQTEDSGNYYCQHFWSLPFTFGSGTKLEIKAAA	binds	binds

Results are given in words; binding and its absence hold for the method and conditions named. Binding calls can cover weak binding; strength is not graded here. Tags and fused reporters may be left off the sequences shown.
